Data reported in PubChem BioAssay AID1671190 (National Center for Advancing Translational Sciences (NCATS), 2021).
The whole screen tested about 580,000 compounds, of which about 6,100 (1.1%) were called active. Inconclusive results (about 15%) are left out. The call rests on the fitted dose curve; in most records, active means well fitted inhibition curve with a large enough effect; inconclusive means small, poorly fitted or top-dose-only effect, or another doubt; inactive means no such curve, though single readings can be large or run the other way. The entries are a selection whose mix differs from that of the whole data set. Where no call is shown, the source filed none.

Sequences of proteins named here, by UniProt entry; tags and fusion partners are left off. A change or cut given only in a name is not applied to a line headed by its entry.
UniProt P18054: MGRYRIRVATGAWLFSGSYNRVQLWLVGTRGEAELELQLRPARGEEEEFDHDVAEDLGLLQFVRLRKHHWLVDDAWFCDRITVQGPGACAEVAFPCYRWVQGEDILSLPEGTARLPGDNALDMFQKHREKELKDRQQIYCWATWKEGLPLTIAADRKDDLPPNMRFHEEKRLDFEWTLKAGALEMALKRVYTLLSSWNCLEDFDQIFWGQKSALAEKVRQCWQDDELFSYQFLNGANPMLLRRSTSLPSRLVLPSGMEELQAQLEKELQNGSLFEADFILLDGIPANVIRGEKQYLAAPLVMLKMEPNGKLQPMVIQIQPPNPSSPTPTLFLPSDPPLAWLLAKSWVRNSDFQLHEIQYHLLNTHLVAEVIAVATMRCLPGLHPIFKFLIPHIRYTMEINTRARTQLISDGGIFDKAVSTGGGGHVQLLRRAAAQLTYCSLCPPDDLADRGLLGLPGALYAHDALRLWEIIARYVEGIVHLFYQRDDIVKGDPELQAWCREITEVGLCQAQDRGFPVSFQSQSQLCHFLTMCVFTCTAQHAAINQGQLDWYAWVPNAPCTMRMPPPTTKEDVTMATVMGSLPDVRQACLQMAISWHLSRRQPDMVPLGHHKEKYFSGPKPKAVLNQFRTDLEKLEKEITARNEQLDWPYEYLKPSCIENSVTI

Each molecule was assayed against Polyunsaturated fatty acid lipoxygenase ALOX12 (Homo sapiens) (UniProt P18054) (assay: Primary qHTS assay for inhibitors of human arachidonate 12S-lipoxygenase (ALOX12): Round 2). Conditions: purified 12hLO, xylenol orange hydroperoxide absorbance; activity change, negative = inhibition: at 0.00344 µM (top of the series).
Outline: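 Hydroperoxide product was detected by ferrous iron/xylenol orange as the 573 to 405 nm absorbance ratio. Arachidonic acid at 40 uM (final) was turned over for 30 min at room temperature by 150 nM human 12hLO, pH 7.0 Hepes buffer, after 15 min compound preincubation.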
On the % scale 0 is the no-effect control and ±100 the full control effect; potency means the concentration at half of the fitted maximal effect.

| SMILES | activity change, negative = inhibition [%] | Potency |
| --- | --- | --- |
| COc1ccc2cc1Oc1ccc(cc1)C[C@H]1c3c(cc4c(c3Oc3cc5c(cc3OC)CCN(C)[C@@H]5C2)OCO4)CCN1C | -1.84 | – |
| Cn1c(=O)c2c(ncn2C)n(C)c1=O | 19.9 | – |
| Cc1ccc(NC(=S)NNC(=S)Nc2ccc(C)cc2C)cc1 | – | active: 35.5 µM |
| O=C(CCCN1CCC(O)(c2ccc(Cl)cc2)CC1)c1ccc(F)cc1 | -18.8 | – |
| COc1cc(C(=O)N2CCCCCCC2)cc(OC)c1OC | -17.5 | – |
| O=C(O)C(=O)Nc1cccc(-c2nn[nH]n2)c1 | 15.3 | – |
| COc1ccc(CN(CCN(C)C)c2ncccn2)cc1 | 22.4 | – |
| Cc1cc2c(OCC(CNC(C)(C)C)OC(=O)c3ccccc3)cccc2[nH]1 (configuration not stated) | -63.2 | – |
| Cc1cc(Cl)ccc1NNC(=O)c1c(C)noc1C | – | active: 31.6 µM |
| NCC(=O)CCC(=O)O | 19.5 | – |
| NCCS | 3.69 | – |
| COCCOC(=O)C1=C(C)NC(C)=C(C(=O)OC(C)C)C1c1cccc([N+](=O)[O-])c1 (configuration not stated) | -7.72 | – |
| CCCOc1ccc2c(c1)CC[C@@H]1[C@@H]2CC[C@]2(C)C(OC)CC[C@@H]12 (some centres not stated) | -13.5 | – |
| CN1C(C(=O)Nc2ccccn2)=C(O)c2ccccc2S1(=O)=O | -3.97 | – |
| COc1c(C)c2c(c(O)c1C/C=C(\C)CCC(=O)OCCN1CCOCC1)C(=O)OC2 | -0.597 | – |
| Cc1ccc(C(=O)O)cc1NC(=S)NC(=O)c1ccc([N+](=O)[O-])c(C)c1 | – | active: 20 µM |
| O=C(O)c1ccc(-n2nc(-c3ccccc3O)nc2-c2ccccc2O)cc1 | -0.828 | – |
| C[C@]12CCC(=O)C=C1C=C[C@@H]1[C@@H]2CC[C@@]2(C)[C@H]1CC[C@@]21CCC(=O)O1 | 16.2 | – |
| COc1ccc2ccccc2c1C1CC(=O)N2CN(C3CCCCC3)CSC2=C1C#N (configuration not stated) | – | active: 17.8 µM |
| C=CCc1ccccc1OCC(=O)OCCNC(=O)c1cccnc1 | – | active: 39.8 µM |
| CCCNC(C)C(=O)Nc1c(C)csc1C(=O)OC (configuration not stated) | -12.8 | – |
| Cc1ccccc1CC(=O)N1CCC2(CC1)NC(=O)N(c1cccc(F)c1)N2 | – | active: 2.82 µM |
| COc1cccc(N(C)C(=S)Oc2ccc3c(c2)CCCC3)n1 | -22 | – |
| CN(C)c1nccc(N(Cc2ccccc2)Cc2ccccc2)c1C#N | – | active: 3.16 µM |
| Nc1nc(N)c(-c2ccccc2)s1 | -14.3 | – |
| Cc1cc(C(C#N)c2ccc(Cl)cc2)c(Cl)cc1NC(=O)c1cc(I)cc(I)c1O (configuration not stated) | -0.924 | – |

| SMILES | activity change, negative = inhibition [%] | Potency |
| --- | --- | --- |
| NCCC(O)(P(=O)(O)O)P(=O)(O)O | 9.8 | – |
| Cc1onc(-c2ccccc2)c1C(=O)Cl | -7.59 | – |
| COc1ccc([C@@H]2Sc3ccccc3N(CCN(C)C)C(=O)[C@@H]2OC(C)=O)cc1 | -25.8 | – |
| COc1cccc(C2C(C(C)=O)=C(O)C(=O)N2CCc2c[nH]c3ccccc23)c1 (configuration not stated) | – | active: 5.01 µM |
| COc1cc(NS(=O)(=O)c2ccc(N)cc2)nc(OC)n1 | -21.8 | – |
| Cc1cccc(Nc2ccncc2S(=O)(=O)NC(=O)NC(C)C)c1 | 5.89 | – |
| O=C(O)CCC(=O)O | 7.79 | – |
| CCc1nc2ccccc2n1CCCCOc1cccc(C)c1 | – | active: 39.8 µM |
| COc1ccc2nc(S(=O)Cc3ncc(C)c(OC)c3C)[nH]c2c1 (configuration not stated) | -53.3 | – |
| CN(C)CC[C@@H](c1ccc(Br)cc1)c1ccccn1 | -0.857 | – |
| CCOC(=O)C1=C(N)Oc2ccc(Br)cc2[C@@H]1[C@@H](C#N)C(=O)OCC | – | active: 10 µM |
| Cc1nnc(SCC2=C(C(=O)O)N3C(=O)[C@@H](NC(=O)Cn4cnnn4)[C@H]3SC2)s1 | -25.7 | – |
| O=c1[nH]c(=O)n([C@H]2C[C@H](O)[C@@H](CO)O2)cc1C(F)(F)F | -10.7 | – |
| O=c1[nH]c2ccccc2c(=O)n1CCCl | 5.12 | – |
| C[C@H](N)C(=O)N[C@@H](C)C(=O)NC1[C@H]2CN(c3nc4c(cc3F)c(=O)c(C(=O)O)cn4-c3ccc(F)cc3F)C[C@@H]12 (some centres not stated) | -15.3 | – |
| CC(C)[C@@H]1CC[C@@H](C)CC1=O | -4.7 | – |
| CC(=O)c1cc2ccccc2s1 | -24 | – |
| CCCSC1=N/C(=C\c2ccc([N+](=O)[O-])o2)C(=O)S1 | – | active: 39.8 µM |
| O=C(O)/C=C(\CC(=O)O)C(=O)O | -11.9 | – |
| CC(C)CCNC(=O)COC(=O)c1cc(-c2ccco2)nc2ccccc12 | – | active: 6.31 µM |
| CCCC(CCC)(C(=O)OCC)C(=O)OCC | -31.7 | – |
| CCOCCOC(=O)/C=C/c1ccc(OC)cc1 | 5.94 | – |
| CC/C=C(\C(=O)N[C@@H]1C(=O)N2C(C(=O)OCOC(=O)C(C)(C)C)=C(COC(N)=O)CS[C@H]12)c1csc(N)n1 | 16.7 | – |
| C[C@H]1C[C@H](O)c2ccsc2S1(=O)=O | 13 | – |
| O=C1NC2(CCN(Cc3ccsc3)CC2)COc2ccccc21 | – | active: 44.7 µM |
| Cc1ccc(C(C)C)c(O)c1 | -13.8 | – |

Copied from the list:
Under activity change, negative = inhibition [%], C[C@]12CCC(=O)C=C1C=C[C@@H]1[C@@H]2CC[C@@]2(C)[C@H]1CC[C@@]21CCC(=O)O1 shows 16.2
Under activity change, negative = inhibition [%], COc1ccc([C@@H]2Sc3ccccc3N(CCN(C)C)C(=O)[C@@H]2OC(C)=O)cc1 shows -25.8
